Laboratory results: paper PMC4192513, “A Novel Protein-Protein Interaction in the RES (REtention and Splicing) Complex” (The Journal of Biological Chemistry, 2014)
Positions count from the first letter of the chain named. No constants are given. Whether binding was seen depends on the method and setting. For some of these results: Binding seen in cells or lysates may run through a third protein. Some binding calls cover weakened binding; strength is not graded here. For some of these results: Sequences can lack the tags named with a protein.

Chains of the proteins cited; added tags and fusions are not shown. Lines headed by an entry give the natural chain unless they say otherwise; changes in a name come on top.
UniProt P46947: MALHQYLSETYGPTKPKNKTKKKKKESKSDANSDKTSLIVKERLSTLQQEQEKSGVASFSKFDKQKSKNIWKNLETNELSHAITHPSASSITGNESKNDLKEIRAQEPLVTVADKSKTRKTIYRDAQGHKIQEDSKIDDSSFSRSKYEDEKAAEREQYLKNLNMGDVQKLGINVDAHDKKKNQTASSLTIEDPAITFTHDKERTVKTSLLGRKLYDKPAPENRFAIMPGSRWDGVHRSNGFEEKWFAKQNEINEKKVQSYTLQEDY

Legend:
[1] = target: T1, Snu17p (residues 25-113) (S. cerevisiae) (UniProt P40565); assay: NMR titration; data not shown: chemical shift perturbations of the shorter Snu17p (residues 25-113) on binding of Bud13p; both purified
T1 sequence: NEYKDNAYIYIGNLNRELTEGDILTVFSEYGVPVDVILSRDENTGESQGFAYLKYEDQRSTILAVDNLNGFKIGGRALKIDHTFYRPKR

[2] = target: T1, Snu17p (residues 25-113) (S. cerevisiae); assay: NMR solution structure; Snu17p residues 25-113 with Bud13p residues 222-256; subunit-selective isotope labelling; 129 intermolecular NOE restraints; 298 K, NMR buffer; both purified
[3] = target: T2, His6-Snu17p (wild type, operon co-expression) (S. cerevisiae) (UniProt P40565); assay: pull-down; one-step Ni-NTA purification of His6-Snu17p, Bud13p and Pml1p co-expressed from an operon in E. coli; fractions on Coomassie-stained denaturing gels
T2 sequence: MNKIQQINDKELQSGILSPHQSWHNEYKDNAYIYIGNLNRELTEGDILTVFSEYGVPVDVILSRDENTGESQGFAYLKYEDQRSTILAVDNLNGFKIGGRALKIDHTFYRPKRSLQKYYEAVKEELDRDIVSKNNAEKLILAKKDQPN

[4] = target: T3, His6-Snu17p F95A,K96D,I97A (operon co-expression) (S. cerevisiae) (UniProt P40565); assay: as above
T3 sequence: T2 sequence with F95A, K96D, I97A

Row | Substance | binding [1] | binding [2] | binding [3] | binding [4]
1 | Bud13p (residues 222-256) (from UniProt P46947 222-256) (peptide) | binds | binds |  | 
2 | Bud13p (wild type, operon co-expression) (from UniProt P46947 1-266) |  |  | binds | binds
